# Results as given in patent publication US9734282B2, “Biological dataset profiling of cardiovascular disease and cardiovascular inflammation” (DISCOVERX CORPORATION, priority 2005, dated 2017).
# For at least one compound, name, drawing or mass did not settle the structure.
# Tested on: Peripheral Blood Mononuclear Cells + Endothelial Cells
# Assay: BioMAP SAg system (PBMC + endothelial cells, TCR), cell-based ELISA
# Design: species or system human
# Settings: protein level drug-treated versus buffer control, 24 h
# Experimental: Human umbilical vein endothelial cells (HUVEC) were cultured according to standard methods, and plated into microtiter plates. Peripheral blood mononuclear cells (PBMC) were prepared from buffy coats from normal human donors according to standard methods. Experiments were performed by culturing HUVEC in microtiter plates in the presence of cytokines (IL-1b, 1 ng/ml; TNF-a, 5 ng/ml; and IFN-g, 100 ng/ml, or IL-4, 5 ng/ml and histamine, […]), activators (SAg, 20 ng/ml or LPS, 0.2 ng/ml), and/or PBMC (7.5×10^4 cells/well) for 24 h. Compounds were tested at the indicated concentrations. […]
# The levels of readout parameters (proteins) were measured by cell-based ELISA. […] Plates were washed and developed with TMB substrate and the absorbance (OD) was read at 450 nm (subtracting the background absorbance at 650 nm). Other readout parameters include: total protein levels (SRB assay), measuring the viability of peripheral blood mononuclear cells (incorporation of propidium iodide); and microscopic visualization. SRB was performed by staining cells with 0.1% sulforhodamine B after fixation with 10% TCA, and reading wells at 560 nm. PBMC viability was assessed by adding propidium iodide (10 mg/ml) to PBMC that had been cultured for 24 hours in the presence of activators and measuring the percentage of cells that incorporated dye by flow cytometry after 10 minutes. […]
smiles,measurement,value
CO[C@H]1C[C@@H]2CC[C@@H](C)[C@@](O)(O2)C(=O)C(=O)N2CCCC[C@H]2C(=O)O[C@H]([C@H](C)C[C@@H]2CC[C@@H](O)[C@H](OC)C2)CC(=O)[C@H](C)/C=C(\C)[C@@H](O)[C@@H](OC)C(=O)[C@H](C)C[C@H](C)/C=C/C=C/C=C/1C [rapamycin],CD69 level,upregulate
